The assay addresses T1, GGA3-FLAG (human) (UniProt Q9NZ52).
T1 sequence: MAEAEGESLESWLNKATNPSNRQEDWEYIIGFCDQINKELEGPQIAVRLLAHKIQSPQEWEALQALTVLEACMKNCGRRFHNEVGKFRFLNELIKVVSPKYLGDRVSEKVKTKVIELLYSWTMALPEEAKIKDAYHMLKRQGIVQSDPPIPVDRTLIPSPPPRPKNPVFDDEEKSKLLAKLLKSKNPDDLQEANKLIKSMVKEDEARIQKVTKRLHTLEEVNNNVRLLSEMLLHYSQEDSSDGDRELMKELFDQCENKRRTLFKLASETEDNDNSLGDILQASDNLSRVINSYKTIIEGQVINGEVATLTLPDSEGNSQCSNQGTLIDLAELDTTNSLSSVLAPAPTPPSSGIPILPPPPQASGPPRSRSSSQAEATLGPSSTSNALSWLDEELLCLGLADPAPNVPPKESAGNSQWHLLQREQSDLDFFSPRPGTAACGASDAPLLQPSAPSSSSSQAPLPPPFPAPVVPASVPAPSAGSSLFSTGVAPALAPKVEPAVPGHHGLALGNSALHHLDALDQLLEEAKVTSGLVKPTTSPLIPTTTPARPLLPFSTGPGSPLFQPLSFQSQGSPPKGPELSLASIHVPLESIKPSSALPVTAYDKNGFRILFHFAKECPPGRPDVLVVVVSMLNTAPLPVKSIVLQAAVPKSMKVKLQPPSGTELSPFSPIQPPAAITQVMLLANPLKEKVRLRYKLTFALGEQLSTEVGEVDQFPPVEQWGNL
Briefly: co-IP; Huh7 cells transfected with p23-GGA3-FLAG and treated with DMSO, BFA, DU101 or DU102 (GCA also named in the methods) for 24 h; lysed in IP buffer (25 mM Tris-HCl pH 7.4, 150 mM NaCl, 1% NP-40, 1 mM EDTA, 5% glycerol); lysate incubated with EDTA, GTPγS and GDP at 30 °C for 15 min, stopped with MgCl2; Flag magnetic beads at 4 °C overnight; immunoblot with anti-Arf1; the paper calls it GGA3 pull-down.

The chains behind the UniProt entries cited, without tags or fusion partners.
UniProt P84077: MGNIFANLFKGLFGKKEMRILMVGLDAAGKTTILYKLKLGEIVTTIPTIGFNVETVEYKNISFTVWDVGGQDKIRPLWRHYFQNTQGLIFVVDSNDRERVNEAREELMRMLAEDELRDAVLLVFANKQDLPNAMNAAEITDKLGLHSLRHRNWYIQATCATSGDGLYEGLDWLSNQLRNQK

No constants are given. Whether binding was seen depends on the method and setting. Binding seen in cells or lysates may run through a third protein. Some results given as binding are weak or reduced against the parent protein; the word gives no strength. Sequences can lack the tags named with a protein.

One substance from PMC11497069, “Novel Arf1 Inhibitors Drive Cancer Stem Cell Aging and Potentiate Anti‐Tumor Immunity” (Advanced Science, 2024) can be followed below.

Arf1 (from UniProt P84077 1-181): the binding result was “binds”.
